Data as given in PubChem BioAssay AID1259254 (NCATS, 2017)
The whole screen tested about 59,000 reagents; below is a part drawn at random. About 1,550 of all reagents (2.6%) were called active. 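G2 share is only a proxy for re-replication; each gene was hit by three separate siRNAs, and active genes were retested.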 Reagents against one gene are numbered here. Not all columns of the deposit are shown. Not given: the amount of reagent.

- Screen: 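Genome-wide screen for genes that prevent DNA re-replication in cancer cells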 (primary screen)
- Cell system: human HCT116 colorectal cancer cells
- Reagents: single siRNA against human genes
- Timing: 3 days
- Measurement: 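Imaged Hoechst DNA stain sorts each cell into a cycle phase by DNA amount; per plate, G2 fraction set to 0% for non-targeting and 100% for GMNN siRNA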
- Scale: G2 robust z-score: higher = more G2 cells, more excess DNA replication
- Call rule: 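An siRNA counts as active if its G2 robust z-score lies at least 5 MADs above the screen median; here such calls match roughly 38% of GMNN control or more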

RAB30 #1 gave G2 robust z-score 3.13; inactive. Knock-down of RAB30 #2 gave: G2 robust z-score -0.044; inactive. RAB30 #3 gave G2 robust z-score -0.0129; inactive. ATL3 #1 showed G2 robust z-score 3.64; inactive. After knock-down of ATL3 #2 the results were G2 robust z-score -1.22; inactive. Depletion of ATL3 #3 came out at: G2 robust z-score 2.01; inactive.

For RAB5B #1, the entry reads G2 robust z-score -1.17; inactive. For RAB5B #2, the entry reads G2 robust z-score 0.252; inactive. RAB5B #3 gave G2 robust z-score -0.395; inactive. For FYN #1 the deposit lists G2 robust z-score -0.976; inactive. FYN #2 showed G2 robust z-score -1.66; inactive. Against FYN #3, the values are G2 robust z-score 0.328; inactive.

2 successive reagents from above:
ATL3 #1 → G2 robust z-score: 3.64; Outcome: inactive
ATL3 #2 → G2 robust z-score: -1.22; Outcome: inactive
